Experimental data reported in the supplement of paper PMC7877785.
± gives the uncertainty stated by the source. Many of these values have a large error.

Test: self-splicing fitness, log relative to wild type (ln ratio); higher = more splicing; Tetrahymena group I intron in knt gene, E. coli kanamycin selection, DiMSum; sequences stand for … in CUCUCU…GGAGGGAAAAGUUAUCAGGCAUGCACCUGGUAGCUAGUCUUUAAACCAAUAGAUUGCAUCGGUUUAAAAGGCAAGACCGUCAAAUUGCGGGAAAGGGGUCAACAGCCGUUCAGUACCAAGUCUCAGGGGAAACUUUGAGAUGGCCUUGCAAAGGGUAUGGUAAUAAGCUGACGGACAUGGUCCUAACCACGCAGCCAAGUCCUAAGUCAACAGAUCUUCUGUUGAUAUGGAUGCAGUUCACAGACUAAAUGUCGGUCGGGGAAGAUGUAUUCUUCUCAUAAGAUAUAGUCGGACCUCUCCUUAAUGGGAGCUAGCGGAUGAAGUGAUGCAACACUGGAGCCGCUGGGAACUAAUUUGUAUGCGAAAGUAUAUUGAUUAGUUUUGGAGUACUCGUGGUCG
In short: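 DiMSum derived fitness as the error-weighted combination of fold changes across replicates, kanamycin versus no kanamycin, normalised to wild type. E. coli BL21(DE3) held the library, which randomised all eight P1ex-region intron nucleotides within the knt kanamycin-resistance gene on pET-22b(+). Six replicate transformations grew overnight at 37°C or 30°C on LB agar with or without 25 μg/mL kanamycin, also containing 100 μg/mL carbenicillin, 50 μM IPTG and 0.2% rhamnose, and pooled colonies were amplicon-sequenced on an Illumina HiSeq 2500.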

Sequence | self-splicing fitness (ln) (37 °C) | self-splicing fitness (ln) (30 °C)
CUGGAGCAAUAUUACGGCGU | -2.76 ± 0.54 | –
AGAGAGCAAUAUUACGACUG | -3.43 ± 1 | –
GUGUAGCAAUAUUACGGACC | – | -3.48 ± 1.1
AUUUAGCAAUAUUACGCCAG | -2.04 ± 0.65 | –
GCUGAGCAAUAUUACGUGAC | -2.05 ± 0.8 | -2.3 ± 0.8
GUUGAGCAAUAUUACGAGAC | – | -1.86 ± 0.52
UAUAAGCAAUAUUACGUUGC | -2.95 ± 0.53 | –
UCAUAGCAAUAUUACGGAAC | -1.88 ± 1.2 | –
GGAGAGCAAUAUUACGCCCC | -1.55 ± 0.84 | –
CCUGAGCAAUAUUACGCUGG | -1.97 ± 0.51 | -4.32 ± 0.73
AAGGAGCAAUAUUACGUACG | -2.52 ± 0.62 | -3.57 ± 0.6
AUACAGCAAUAUUACGAACG | -1.44 ± 0.17 | -0.79 ± 0.12
GUGUAGCAAUAUUACGCAGG | – | -5.23 ± 0.59
UCCUAGCAAUAUUACGGACC | -1.46 ± 0.53 | –
UGAUAGCAAUAUUACGUUCC | -1.1 ± 0.4 | -1.67 ± 0.24
AACGAGCAAUAUUACGUUGA | -3.32 ± 0.22 | -3.48 ± 0.21
AACCAGCAAUAUUACGCGUA | -0.313 ± 0.073 | -0.386 ± 0.063
AGGGAGCAAUAUUACGUAGG | – | -4.01 ± 0.52
AACUAGCAAUAUUACGCCAC | – | -5.03 ± 1
CCCGAGCAAUAUUACGAACC | -1.99 ± 0.66 | –
CUAGAGCAAUAUUACGUAUA | -2.5 ± 0.53 | –
GGAGAGCAAUAUUACGGGGG | – | -3.28 ± 0.77
CAUAAGCAAUAUUACGACUA | -0.427 ± 0.078 | -1.94 ± 0.095
CUCAAGCAAUAUUACGCAAG | – | -5.46 ± 1
GAGGAGCAAUAUUACGUGUA | – | -5.35 ± 1
AGAGAGCAAUAUUACGCGGC | -2.65 ± 0.62 | –
GAGGAGCAAUAUUACGUCAG | -2.79 ± 0.63 | –
GCUGAGCAAUAUUACGUUAC | – | -4.23 ± 0.72

Reprinted at random: two records from the list.
Sequence | self-splicing fitness (ln) (37 °C) | self-splicing fitness (ln) (30 °C)
UAUAAGCAAUAUUACGUUGC | -2.95 ± 0.53 | –
AGGGAGCAAUAUUACGUAGG | – | -4.01 ± 0.52

Next records

Sequence | self-splicing fitness (ln) (37 °C) | self-splicing fitness (ln) (30 °C)
UAAUAGCAAUAUUACGAUUC | – | -4.17 ± 0.51
UCUGAGCAAUAUUACGACUC | -2.5 ± 0.62 | –
AUCAAGCAAUAUUACGGCCC | -0.732 ± 0.71 | –
UGGCAGCAAUAUUACGCCUC | -0.0936 ± 0.56 | –
CCCAAGCAAUAUUACGUGGC | -2.8 ± 0.18 | -3.5 ± 0.13
AUCGAGCAAUAUUACGAAGC | -0.609 ± 0.58 | –
GAGGAGCAAUAUUACGGCAU | – | -2.46 ± 0.8
CGGAAGCAAUAUUACGGGAC | -1.2 ± 0.73 | –
UUGGAGCAAUAUUACGUGAU | -1.47 ± 1.2 | -3.31 ± 1
GACGAGCAAUAUUACGCCCC | -1.79 ± 0.82 | -2.42 ± 1.2
CCGGAGCAAUAUUACGUACA | -3.75 ± 0.59 | –
GUAGAGCAAUAUUACGGCUG | -0.584 ± 0.14 | -1.04 ± 0.13
UCAGAGCAAUAUUACGAAGC | -1.81 ± 0.83 | –
CUCCAGCAAUAUUACGCAUA | – | -3.55 ± 0.54
CACAAGCAAUAUUACGGGUC | -2.2 ± 0.12 | -3.43 ± 0.1
UGACAGCAAUAUUACGGAUC | -2.21 ± 0.16 | -4.78 ± 0.32
AGUGAGCAAUAUUACGACUC | -3.46 ± 0.73 | –
GGGUAGCAAUAUUACGUCCU | -3.25 ± 1 | -2.93 ± 0.63
UUUGAGCAAUAUUACGUGCC | – | -1.27 ± 1
GAAUAGCAAUAUUACGCUGU | -2.1 ± 0.15 | -3.12 ± 0.21
CGAGAGCAAUAUUACGAGGA | – | -0.868 ± 1.4
CAUGAGCAAUAUUACGGCCC | -1.37 ± 1.2 | –
UGCGAGCAAUAUUACGCGGG | -2.26 ± 0.56 | –
GUCGAGCAAUAUUACGUUGU | – | -5.27 ± 1
GUUCAGCAAUAUUACGCACG | -0.682 ± 0.31 | -0.107 ± 0.22
UCUGAGCAAUAUUACGAGAA | -2.03 ± 0.52 | -2.29 ± 0.55
AACGAGCAAUAUUACGGGGU | -3.04 ± 0.74 | –
